Reference: the supplement of paper PMC9454738
± gives the standard deviation of the averaged measurements. The list shows a part of the results. This data set is noisy: repeats of one test often differ as much as different tests do.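 Triple-negative MDA-MB-231 breast cancer cells and their brain-metastatic MDA-MB-231BRM derivative each stably expressed empty vector, full-length GLI1 or truncated tGLI1. CellTiter-Blue measured viability at 48 h relative to 1% DMSO vehicle. Compounds reducing viability 20% more in tGLI1 cells than in vector and GLI1 cells counted as tGLI1-selective.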

How the values were obtained:
Assay in all cases: cell viability relative to vehicle (DMSO) control (fraction); higher = more viable cells (less growth inhibition)
Settings in all cases: treatment time 48 h
MDA-MB-231 GLI1 = test system: MDA-MB-231 GLI1
MDA-MB-231 Vector = test system: MDA-MB-231 Vector
MDA-MB-231 tGLI1 = test system: MDA-MB-231 tGLI1
MDA-MB-231BRM GLI1 = test system: MDA-MB-231BRM GLI1
MDA-MB-231BRM Vector = test system: MDA-MB-231BRM Vector
MDA-MB-231BRM tGLI1 = test system: MDA-MB-231BRM tGLI1

Structure (SMILES) | cell viability (MDA-MB-231 GLI1; 0.05 µM) | cell viability (MDA-MB-231 GLI1; 0.5 µM) | cell viability (MDA-MB-231 GLI1; 5 µM) | cell viability (MDA-MB-231 Vector; 0.05 µM) | cell viability (MDA-MB-231 Vector; 0.5 µM) | cell viability (MDA-MB-231 Vector; 5 µM) | cell viability (MDA-MB-231 tGLI1; 0.05 µM) | cell viability (MDA-MB-231 tGLI1; 0.5 µM) | cell viability (MDA-MB-231 tGLI1; 5 µM) | cell viability (MDA-MB-231BRM GLI1; 0.05 µM) | cell viability (MDA-MB-231BRM GLI1; 0.5 µM) | cell viability (MDA-MB-231BRM GLI1; 5 µM) | cell viability (MDA-MB-231BRM Vector; 0.05 µM) | cell viability (MDA-MB-231BRM Vector; 0.5 µM) | cell viability (MDA-MB-231BRM Vector; 5 µM) | cell viability (MDA-MB-231BRM tGLI1; 0.05 µM) | cell viability (MDA-MB-231BRM tGLI1; 0.5 µM) | cell viability (MDA-MB-231BRM tGLI1; 5 µM)
CC(C)(C)NC(=O)[C@H]1CC[C@H]2[C@@H]3CC[C@H]4NC(=O)C=C[C@]4(C)[C@H]3CC[C@]12C [Finasteride] | 1.22 | 1.01 | 1.16 | 1.49 | 1.36 | 1.11 | 0.841 | 1.1 | 1.12 | 1.03 | 1.01 | 0.971 | 1.05 | 0.992 | 0.991 | 1.04 | 1.07 | 1.04
C[C@H](NC(=O)/C(C#N)=C/c1cccc(Br)n1)c1ccccc1 | 1.25 | 1.21 | -0.0479 | 1.24 | 1.29 | -0.0847 | 1.17 | 1.16 | -0.00293 | 0.992 | 1.06 | 1.11 | 0.995 | 1.02 | 0.665 | 1.02 | 1.08 | 0.947
COc1ccccc1-c1cc(Nc2cccc(CS(N)(=O)=O)c2)ncn1 | 2.29 | 3.16 | 1.03 | 1.37 | 1.26 | 0.66 | 1.33 | 1.58 | 0.792 | 0.837 | 0.753 | 0.669 | 0.931 | 0.871 | 0.764 | 1.23 | 1.11 | 1.06
COc1cc2ncnc(Nc3ccc(F)c(Cl)c3)c2cc1OCCCN1CCOCC1 [Gefitinib (ZD1839)] | 1.36 | 1.71 | 1.46 | 1.39 | 1.24 | 1.06 | 1.12 | 1.41 | 1.04 | 0.906 | 0.892 | 0.696 | 0.889 | 0.968 | 0.792 | 0.942 | 0.85 | 0.739
Cc1ccc(F)c(NC(=O)Nc2ccc(-c3cccc4[nH]nc(N)c34)cc2)c1 [Linifanib (ABT-869)] | 0.758 | 1.17 | 0.0344 | 0.551 | 0.693 | 0.113 | 0.48 | 1.01 | 0.0569 | 0.939 | 1.04 | 0.831 | 0.869 | 0.902 | 0.845 | 1 | 0.961 | 0.8
CC[C@@H]1C(=O)N(C)c2cnc(Nc3ccc(C(=O)N[C@H]4CC[C@H](N5CCN(CC6CC6)CC5)CC4)cc3OC)nc2N1C(C)C [Volasertib (BI 6727)] | 0.116 | 0.165 | 0.0616 | 0.133 | 0.193 | 0.252 | 0.136 | 0.206 | 0.0404 | 1.41 | 1.16 | 0.908 | 1.44 | 1.15 | 0.849 | 1.27 | 1.14 | 0.77
Cc1[nH]c(/C=C2\C(=O)Nc3ccc(S(=O)(=O)Cc4c(Cl)cccc4Cl)cc32)c(C)c1C(=O)N1CCC[C@@H]1CN1CCCC1 | 1.4 | 1.71 | -0.23 | 1.47 | 1.23 | -0.104 | 1.25 | 1.5 | -0.169 | 0.925 | 0.855 | 0.315 | 0.919 | 0.855 | 0.428 | 0.892 | 0.851 | 0.3
C#Cc1cccc(Nc2ncnc3cc(OCCOC)c(OCCO)cc23)c1 | 1.19 | 1.18 | 0.952 | 1.37 | 1.03 | 0.817 | 1.08 | 1.21 | 0.902 | 1.14 | 1.11 | 0.875 | 0.693 | 0.978 | 0.923 | 0.898 | 1.12 | 0.865
N#C/C(=C\c1ccc(O)c(O)c1)C(=O)NCc1ccccc1 [AG-490 (Tyrphostin B42)] | 1.08 | 1.42 | 1.02 | 1.2 | 1.17 | 1.21 | 0.952 | 1.32 | 0.569 | 1.01 | 0.944 | 0.885 | 0.893 | 0.917 | 0.934 | 1.01 | 0.936 | 0.934
CCCCCCCCCCCCc1ccc(S(=O)(=O)Nc2nncs2)cc1 | 1.28 | 1.53 | 1.57 | 1.96 | 1.31 | 1.26 | 0.615 | 1.41 | 1.44 | 1.14 | 1.16 | 0.969 | 0.656 | 1.05 | 1.04 | 0.567 | 1.1 | 0.974
CNCc1ccc(-c2cc(-c3nc(-c4ccc(S(=O)(=O)C(C)C)cc4)cnc3N)on2)cc1 | 0.866 | 0.283 | 0.161 | 1.17 | 0.338 | 0.238 | 1.34 | 0.324 | 0.155 | 1.02 | 1.02 | 0.96 | 1.11 | 1.17 | 1.12 | 1.08 | 1.02 | 0.922
C[C@@H]1CN(CC(=O)Nc2ccc3c(c2)Cc2cccc(-c4cc(=O)cc(N5CCOCC5)o4)c2S3)C[C@H](C)O1 | 1.2 | 1.1 | 0.828 | 1.52 | 1.05 | 0.606 | 1.01 | 1.13 | 0.823 | 1.08 | 0.494 | 0.605 | 0.592 | 0.858 | 0.613 | 0.926 | 1.03 | 0.631
NC(=O)c1ncn([C@@H]2O[C@H](CO)[C@@H](O)[C@H]2O)c1N [Acadesine] | 1.17 ± 0.19 | 1.21 ± 0.13 | 1.33 ± 0.39 | 1.37 ± 0.7 | 1.21 ± 0.025 | 1.33 ± 0.16 | 1.222 ± 0.0056 | 1.25 ± 0.11 | 1.24 ± 0.11 | 1.09 ± 0.16 | 1.1 ± 0.13 | 1.01 ± 0.053 | 1.06 ± 0.065 | 0.866 ± 0.21 | 1.1 ± 0.018 | 0.892 ± 0.09 | 1.13 ± 0.032 | 0.996 ± 0.024

Record cards (already shown). Values in the order: cell viability (MDA-MB-231 GLI1; 0.05 µM) | cell viability (MDA-MB-231 GLI1; 0.5 µM) | cell viability (MDA-MB-231 GLI1; 5 µM) | cell viability (MDA-MB-231 Vector; 0.05 µM) | cell viability (MDA-MB-231 Vector; 0.5 µM) | cell viability (MDA-MB-231 Vector; 5 µM) | cell viability (MDA-MB-231 tGLI1; 0.05 µM) | cell viability (MDA-MB-231 tGLI1; 0.5 µM) | cell viability (MDA-MB-231 tGLI1; 5 µM) | cell viability (MDA-MB-231BRM GLI1; 0.05 µM) | cell viability (MDA-MB-231BRM GLI1; 0.5 µM) | cell viability (MDA-MB-231BRM GLI1; 5 µM) | cell viability (MDA-MB-231BRM Vector; 0.05 µM) | cell viability (MDA-MB-231BRM Vector; 0.5 µM) | cell viability (MDA-MB-231BRM Vector; 5 µM) | cell viability (MDA-MB-231BRM tGLI1; 0.05 µM) | cell viability (MDA-MB-231BRM tGLI1; 0.5 µM) | cell viability (MDA-MB-231BRM tGLI1; 5 µM)
NC(=O)c1ncn([C@@H]2O[C@H](CO)[C@@H](O)[C@H]2O)c1N [Acadesine] in the list: 1.17 ± 0.19 | 1.21 ± 0.13 | 1.33 ± 0.39 | 1.37 ± 0.7 | 1.21 ± 0.025 | 1.33 ± 0.16 | 1.222 ± 0.0056 | 1.25 ± 0.11 | 1.24 ± 0.11 | 1.09 ± 0.16 | 1.1 ± 0.13 | 1.01 ± 0.053 | 1.06 ± 0.065 | 0.866 ± 0.21 | 1.1 ± 0.018 | 0.892 ± 0.09 | 1.13 ± 0.032 | 0.996 ± 0.024
N#C/C(=C\c1ccc(O)c(O)c1)C(=O)NCc1ccccc1 [AG-490 (Tyrphostin B42)] in the list: 1.08 | 1.42 | 1.02 | 1.2 | 1.17 | 1.21 | 0.952 | 1.32 | 0.569 | 1.01 | 0.944 | 0.885 | 0.893 | 0.917 | 0.934 | 1.01 | 0.936 | 0.934
